No constants are given. Whether binding was seen depends on the method and setting. A result given as binding can be weak or reduced; the word gives no strength.
How the values were obtained:
[1] = biological target: human MMP-12 catalytic domain mutant D4 (cdMMP-12 D4) (human); assay: ELISA, bio-layer interferometry and competitive ELISA
[2] = biological target: human MMP-12 catalytic domain mutant D4 (cdMMP-12 D4) (human); assay: ELISA and bio-layer interferometry

B1: anti-MMP-12 Fab LH6 (Fab, V domains shown)
VH: EVQLVESGGGLVQPGGSLRLSCAASGFNLSYSYMHWVRQAPGKGLEWVASIYPSYGSTYYADSVKGRFTISADTSKNTAYLQMNSLRAEDTAVYYCARDLEESLPKRARTAVSKELESVPYVMDYWGQGTLVTVSS
VL: DIQMTQSPSSLSASVGDRVTITCRASQSVSSAVAWYQQKPGKAPKLLIYSASSLYSGVPSRFSGSRSGTDFTLTISSLQPEDFATYYCQQSSHYASPPITFGQGTKVEIKR
B1 was tested, and the binding [1] was “binds” and the binding [2] was “binds”.

B2: anti-MMP-12 Fab LH11 (Fab, V domains shown)
VH: EVQLVESGGGLVQPGGSLRLSCAASGFNLSYYSMHWVRQAPGKGLEWVAYIYPYYGSTYYADSVKGRFTISADTSKNTAYLQMNSLRAEDTAVYYCARFLLSIGKLFVGDGSILHVWL
VL: DIQMTQSPSSLSASVGDRVTITCRASQSVSSAVAWYQQKPGKAPKLLIYSASSLYSGVPSRFSGSRSGTDFTLTISSLQPEDFATYYCQQAYYGYLFTFGQGTKVEIKR
B2 was tested, and the binding [1] was “binds”.

B3: anti-MMP-12 Fab LG4 (Fab, V domains shown)
VH: EVQLVESGGGLVQPGGSLRLSCAASGFNLYYSYMHWVRQAPGKGLEWVASISSYYGYTSYADSVKGRFTISADTSKNTAYLQMNSLRAEDTAVYYCARSPIVYYELFMFIDMGAQGWKYGMDYWGQGTLVTVSS
VL: DIQMTQSPSSLSASVGDRVTITCRASQSVSSAVAWYQQKPGKAPKLLIYSASSLYSGVPSRFSGSRSGTDFTLTISSLQPEDFATYYCQQTFYPFTFGQGTKVEIKR
In the case of B3, the binding [1] is reported as “binds”.
